In the supplement of paper PMC10849652:
The other results are listed elsewhere or left out.

The chains behind the UniProt entries cited, without tags or fusion partners. Where a name states a change or a piece, a line headed by the entry shows the natural chain unless it says otherwise.
UniProt Q969E2: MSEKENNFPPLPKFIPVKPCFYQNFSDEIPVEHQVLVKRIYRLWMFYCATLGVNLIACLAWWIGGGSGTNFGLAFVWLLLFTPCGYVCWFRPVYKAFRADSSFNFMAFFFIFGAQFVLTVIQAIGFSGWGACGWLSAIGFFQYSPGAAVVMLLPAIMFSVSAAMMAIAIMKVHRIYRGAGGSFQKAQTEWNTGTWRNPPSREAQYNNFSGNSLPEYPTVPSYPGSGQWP
UniProt Q9NSI8: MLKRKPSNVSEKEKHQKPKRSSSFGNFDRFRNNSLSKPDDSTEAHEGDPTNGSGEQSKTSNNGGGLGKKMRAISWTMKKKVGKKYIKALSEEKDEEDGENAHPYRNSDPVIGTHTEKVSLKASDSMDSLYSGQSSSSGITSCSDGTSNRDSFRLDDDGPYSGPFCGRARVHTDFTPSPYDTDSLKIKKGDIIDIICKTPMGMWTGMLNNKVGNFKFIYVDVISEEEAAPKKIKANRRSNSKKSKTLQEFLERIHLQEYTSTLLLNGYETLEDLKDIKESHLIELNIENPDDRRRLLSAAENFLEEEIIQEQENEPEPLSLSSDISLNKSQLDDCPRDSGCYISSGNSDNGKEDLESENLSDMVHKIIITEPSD
UniProt Q96I15: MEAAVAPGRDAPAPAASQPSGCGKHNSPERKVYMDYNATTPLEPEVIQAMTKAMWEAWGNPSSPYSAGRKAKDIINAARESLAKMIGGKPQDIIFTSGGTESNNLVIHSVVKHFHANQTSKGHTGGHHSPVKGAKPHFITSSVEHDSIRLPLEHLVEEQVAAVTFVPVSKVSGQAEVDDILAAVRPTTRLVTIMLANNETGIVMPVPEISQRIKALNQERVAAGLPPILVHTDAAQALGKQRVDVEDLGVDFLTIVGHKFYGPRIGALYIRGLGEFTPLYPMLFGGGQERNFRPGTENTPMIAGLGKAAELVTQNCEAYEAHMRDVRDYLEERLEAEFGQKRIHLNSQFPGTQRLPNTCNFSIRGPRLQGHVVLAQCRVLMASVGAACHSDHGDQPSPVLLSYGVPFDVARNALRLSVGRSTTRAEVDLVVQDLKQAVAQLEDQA
UniProt Q9Y3A5: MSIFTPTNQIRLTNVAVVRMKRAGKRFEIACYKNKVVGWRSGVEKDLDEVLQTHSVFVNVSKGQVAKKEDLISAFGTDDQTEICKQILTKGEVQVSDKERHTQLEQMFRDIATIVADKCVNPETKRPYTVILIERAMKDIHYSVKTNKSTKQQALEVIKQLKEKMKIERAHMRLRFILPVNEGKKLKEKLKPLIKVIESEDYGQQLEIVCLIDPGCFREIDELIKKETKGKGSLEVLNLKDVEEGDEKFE
UniProt Q9NR31: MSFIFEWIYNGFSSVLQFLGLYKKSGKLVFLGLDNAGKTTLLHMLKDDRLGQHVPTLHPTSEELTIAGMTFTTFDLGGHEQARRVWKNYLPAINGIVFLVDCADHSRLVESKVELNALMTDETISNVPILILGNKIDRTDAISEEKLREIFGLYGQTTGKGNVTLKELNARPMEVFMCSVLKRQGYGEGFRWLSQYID
UniProt P61619, whole entry, looked up: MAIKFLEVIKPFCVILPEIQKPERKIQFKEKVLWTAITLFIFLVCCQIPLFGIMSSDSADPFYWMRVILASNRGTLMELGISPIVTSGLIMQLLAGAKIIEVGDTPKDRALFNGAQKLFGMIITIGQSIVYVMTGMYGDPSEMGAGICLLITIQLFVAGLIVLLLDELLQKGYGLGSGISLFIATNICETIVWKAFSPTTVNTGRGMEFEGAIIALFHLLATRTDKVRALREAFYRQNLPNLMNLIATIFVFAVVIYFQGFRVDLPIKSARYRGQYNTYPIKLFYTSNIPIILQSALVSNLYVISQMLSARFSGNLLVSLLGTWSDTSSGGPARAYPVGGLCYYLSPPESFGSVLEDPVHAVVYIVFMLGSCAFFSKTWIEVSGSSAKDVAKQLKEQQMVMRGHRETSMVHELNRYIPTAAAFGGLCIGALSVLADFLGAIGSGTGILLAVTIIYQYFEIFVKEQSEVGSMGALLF
UniProt Q9UQR0: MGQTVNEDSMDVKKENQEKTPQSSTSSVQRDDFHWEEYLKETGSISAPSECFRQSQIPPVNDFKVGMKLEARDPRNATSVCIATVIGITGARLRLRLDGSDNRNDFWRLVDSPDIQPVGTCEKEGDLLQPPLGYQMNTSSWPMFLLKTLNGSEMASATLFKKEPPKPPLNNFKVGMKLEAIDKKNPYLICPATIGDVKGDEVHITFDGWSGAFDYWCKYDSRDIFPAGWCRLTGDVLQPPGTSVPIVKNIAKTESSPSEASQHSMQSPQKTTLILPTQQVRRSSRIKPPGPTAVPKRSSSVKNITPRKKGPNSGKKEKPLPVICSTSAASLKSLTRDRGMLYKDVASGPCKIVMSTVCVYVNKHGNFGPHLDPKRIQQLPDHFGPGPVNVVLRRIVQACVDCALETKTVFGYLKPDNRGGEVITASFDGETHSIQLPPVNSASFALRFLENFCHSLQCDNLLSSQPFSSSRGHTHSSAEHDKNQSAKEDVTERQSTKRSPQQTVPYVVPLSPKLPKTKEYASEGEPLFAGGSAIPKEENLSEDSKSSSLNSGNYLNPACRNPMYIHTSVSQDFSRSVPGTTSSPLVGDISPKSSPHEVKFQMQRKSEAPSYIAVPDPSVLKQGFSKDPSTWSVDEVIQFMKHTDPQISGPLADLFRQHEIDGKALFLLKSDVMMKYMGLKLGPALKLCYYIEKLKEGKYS
UniProt Q9UBE0: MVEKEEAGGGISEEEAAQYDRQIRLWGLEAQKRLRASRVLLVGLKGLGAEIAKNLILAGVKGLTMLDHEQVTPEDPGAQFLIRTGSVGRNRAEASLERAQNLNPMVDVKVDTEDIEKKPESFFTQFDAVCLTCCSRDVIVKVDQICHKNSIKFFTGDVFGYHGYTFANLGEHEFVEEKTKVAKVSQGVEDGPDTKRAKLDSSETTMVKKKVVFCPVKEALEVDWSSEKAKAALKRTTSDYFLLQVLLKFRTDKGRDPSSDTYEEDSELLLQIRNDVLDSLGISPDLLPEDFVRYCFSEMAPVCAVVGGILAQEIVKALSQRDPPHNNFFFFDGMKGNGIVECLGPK
UniProt Q15437: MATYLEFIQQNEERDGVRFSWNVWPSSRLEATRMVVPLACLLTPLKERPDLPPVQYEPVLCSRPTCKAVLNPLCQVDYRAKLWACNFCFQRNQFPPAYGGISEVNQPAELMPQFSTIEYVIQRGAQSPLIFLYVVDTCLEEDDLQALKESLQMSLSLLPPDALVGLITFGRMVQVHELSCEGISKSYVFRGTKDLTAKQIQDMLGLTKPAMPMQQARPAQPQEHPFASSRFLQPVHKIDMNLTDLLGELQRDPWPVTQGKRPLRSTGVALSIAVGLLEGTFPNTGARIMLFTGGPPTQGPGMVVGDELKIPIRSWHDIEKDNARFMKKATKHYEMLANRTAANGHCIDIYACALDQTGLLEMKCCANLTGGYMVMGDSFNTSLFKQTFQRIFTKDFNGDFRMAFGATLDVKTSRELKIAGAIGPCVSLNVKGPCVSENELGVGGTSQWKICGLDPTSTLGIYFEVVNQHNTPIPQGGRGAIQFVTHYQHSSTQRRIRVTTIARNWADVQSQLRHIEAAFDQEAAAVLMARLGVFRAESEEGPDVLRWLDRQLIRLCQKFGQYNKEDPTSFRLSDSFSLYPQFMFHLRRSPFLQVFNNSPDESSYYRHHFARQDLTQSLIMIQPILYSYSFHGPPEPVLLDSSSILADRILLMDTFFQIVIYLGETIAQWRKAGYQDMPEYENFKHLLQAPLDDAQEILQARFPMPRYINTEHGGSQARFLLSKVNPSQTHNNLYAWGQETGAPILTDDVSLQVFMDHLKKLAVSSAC
UniProt Q8IZQ5, whole entry, looked up: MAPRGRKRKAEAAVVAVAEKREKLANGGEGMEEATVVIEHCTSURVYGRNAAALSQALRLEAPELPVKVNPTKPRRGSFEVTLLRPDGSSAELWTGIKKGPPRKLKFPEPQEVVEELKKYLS
UniProt P60468, whole entry, looked up: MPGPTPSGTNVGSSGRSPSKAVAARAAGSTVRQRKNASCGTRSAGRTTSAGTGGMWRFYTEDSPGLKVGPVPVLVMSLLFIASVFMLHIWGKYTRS
UniProt O15027: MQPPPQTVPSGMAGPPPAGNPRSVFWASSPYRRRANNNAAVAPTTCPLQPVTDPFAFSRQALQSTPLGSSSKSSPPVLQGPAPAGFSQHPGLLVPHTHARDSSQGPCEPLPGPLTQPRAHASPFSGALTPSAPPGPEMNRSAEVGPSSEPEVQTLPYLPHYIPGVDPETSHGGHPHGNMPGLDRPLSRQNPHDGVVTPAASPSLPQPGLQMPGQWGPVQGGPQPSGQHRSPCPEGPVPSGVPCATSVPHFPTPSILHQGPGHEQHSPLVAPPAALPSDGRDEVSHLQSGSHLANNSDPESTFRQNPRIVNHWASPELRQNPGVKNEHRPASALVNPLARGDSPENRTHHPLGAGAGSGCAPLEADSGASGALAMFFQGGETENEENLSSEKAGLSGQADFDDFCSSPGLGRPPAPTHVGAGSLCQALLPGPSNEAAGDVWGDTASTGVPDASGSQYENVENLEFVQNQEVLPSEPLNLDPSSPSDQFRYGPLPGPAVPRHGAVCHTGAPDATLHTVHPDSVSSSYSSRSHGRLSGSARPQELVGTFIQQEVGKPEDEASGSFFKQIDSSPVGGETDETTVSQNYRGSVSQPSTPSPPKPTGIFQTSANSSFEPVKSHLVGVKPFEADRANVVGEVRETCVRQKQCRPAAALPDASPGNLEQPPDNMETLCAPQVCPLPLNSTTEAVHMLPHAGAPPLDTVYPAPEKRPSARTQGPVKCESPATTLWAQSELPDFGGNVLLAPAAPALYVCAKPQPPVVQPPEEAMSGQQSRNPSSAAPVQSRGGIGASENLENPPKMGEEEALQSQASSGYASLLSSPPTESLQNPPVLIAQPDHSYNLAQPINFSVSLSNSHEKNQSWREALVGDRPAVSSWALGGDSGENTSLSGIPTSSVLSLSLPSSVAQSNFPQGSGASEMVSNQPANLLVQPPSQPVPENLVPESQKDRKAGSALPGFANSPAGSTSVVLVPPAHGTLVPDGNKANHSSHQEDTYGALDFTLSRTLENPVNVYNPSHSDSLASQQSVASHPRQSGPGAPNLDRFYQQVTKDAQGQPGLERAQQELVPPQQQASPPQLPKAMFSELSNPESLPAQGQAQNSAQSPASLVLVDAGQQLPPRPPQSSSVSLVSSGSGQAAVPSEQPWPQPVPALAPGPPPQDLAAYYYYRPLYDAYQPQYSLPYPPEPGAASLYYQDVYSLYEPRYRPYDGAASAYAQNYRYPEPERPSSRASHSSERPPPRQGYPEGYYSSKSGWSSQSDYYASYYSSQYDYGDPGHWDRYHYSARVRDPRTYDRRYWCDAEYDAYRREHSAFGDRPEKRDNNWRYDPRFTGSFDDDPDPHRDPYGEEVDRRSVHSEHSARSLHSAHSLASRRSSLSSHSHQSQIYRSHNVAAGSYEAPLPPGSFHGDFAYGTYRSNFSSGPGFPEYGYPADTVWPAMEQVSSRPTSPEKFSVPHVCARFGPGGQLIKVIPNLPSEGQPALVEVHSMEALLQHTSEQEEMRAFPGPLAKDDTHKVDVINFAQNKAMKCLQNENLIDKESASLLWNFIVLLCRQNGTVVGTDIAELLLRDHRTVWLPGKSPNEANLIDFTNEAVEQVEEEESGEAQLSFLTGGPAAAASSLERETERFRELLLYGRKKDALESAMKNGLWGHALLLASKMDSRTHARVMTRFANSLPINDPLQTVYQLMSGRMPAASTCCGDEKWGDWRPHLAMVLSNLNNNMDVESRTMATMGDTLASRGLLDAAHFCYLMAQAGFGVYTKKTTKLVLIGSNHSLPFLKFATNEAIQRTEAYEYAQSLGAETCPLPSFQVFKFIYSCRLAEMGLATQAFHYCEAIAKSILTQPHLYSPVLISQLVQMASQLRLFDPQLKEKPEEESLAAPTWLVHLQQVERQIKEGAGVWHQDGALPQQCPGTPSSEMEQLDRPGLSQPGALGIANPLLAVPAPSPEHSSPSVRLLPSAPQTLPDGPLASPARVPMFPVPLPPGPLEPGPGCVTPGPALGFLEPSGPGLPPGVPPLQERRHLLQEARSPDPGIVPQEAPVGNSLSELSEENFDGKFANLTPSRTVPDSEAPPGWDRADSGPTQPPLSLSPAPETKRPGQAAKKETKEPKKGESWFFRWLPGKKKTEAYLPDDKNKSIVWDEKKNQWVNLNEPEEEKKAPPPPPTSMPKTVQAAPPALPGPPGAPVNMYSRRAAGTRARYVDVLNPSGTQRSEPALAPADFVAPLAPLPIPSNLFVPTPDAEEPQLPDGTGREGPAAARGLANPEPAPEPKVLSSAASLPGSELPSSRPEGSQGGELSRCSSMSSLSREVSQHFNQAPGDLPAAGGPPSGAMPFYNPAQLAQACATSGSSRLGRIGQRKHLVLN
UniProt Q9Y6D0, whole entry, looked up: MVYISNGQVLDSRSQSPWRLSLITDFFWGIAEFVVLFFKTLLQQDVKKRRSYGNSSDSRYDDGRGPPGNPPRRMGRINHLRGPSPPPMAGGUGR
UniProt Q9NRP4: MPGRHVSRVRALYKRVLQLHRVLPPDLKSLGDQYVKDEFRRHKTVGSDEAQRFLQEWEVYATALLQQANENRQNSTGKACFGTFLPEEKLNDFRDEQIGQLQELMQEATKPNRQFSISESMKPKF

Experiments:
Experiment in all cases: log2 fold change, soluble protein after heating vs DMSO (PISA); higher = thermal stabilisation; K562 lysate, 10 uM; active = over 0.2 and 3.5 SD of the protein, either way, in both replicates (recomputed)
[1] = compound: C1=CC=C(C=C1)[C@H](COC2=CC3=C(C=C2)NC(=O)N3)NC(=O)C4=CC=CN(C4=O)CC5=CC(=C(C=C5)F)F
How it was run: (§1)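 Log-two fold change in thermal stability relative to solvent controls is reported from duplicates. For each sample, crude K562 extract from dounce-homogenised pellets in PBS pH 7.4 with 1 mM MgCl2, at 1 mg/mL protein, was treated with 10 μM compound for 30 min. Aliquots heated for 3 min across 48°C-58°C were pooled, brought to 0.5% NP-40 at 4°C and cleared at 21,000xg for 90 min. The supernatant was quantified by TMTpro 16plex LC-MS/MS with channel sums equalised.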

[2] = compound: CC1=C(SC2=C1C(=N[C@H](C3=NN=C(N32)C)CC(=O)N)C4=CC=C(C=C4)Cl)C
How it was run: as §1

[3] = compound: CC1=C2C(=CC=C1)N=C(N(C2=O)C3=CC=CC=C3C)CN4C=NC5=C(N=CN=C54)N
How it was run: as §1

[4] = compound: Cc1sc2c(c1C)C(c1ccc(Cl)cc1)=N[C@@H](CC(=O)OC(C)(C)C)c1nnc(C)n1-2
How it was run: as §1

[5] = compound: c1ccc([C@@H]2C[C@H]2NC2CCNCC2)cc1
How it was run: as §1

Measured: log2 fold change

SCAMP4 (UniProt Q969E2)
inactive: [1] 0.052 | [2] -0.036 | [3] -0.019 | [4] -0.056 | [5] -0.071

SCAMP3 (UniProt O14828)
inactive: [1] 0.034 | [2] -0.048 | [3] -0.008 | [4] 0.001 | [5] -0.024

SDAD1 (UniProt Q9NVU7)
inactive: [1] 0.023 | [2] -0.013 | [3] -0.019 | [4] -0.028 | [5] 0.049

SCLT1 (UniProt Q96NL6)
inactive: [1] 0.039 | [2] 0.003 | [3] 0.073 | [4] 0.024 | [5] 0.15

SCAF11 (UniProt Q99590)
inactive: [1] 0.072 | [2] -0.016 | [3] 0.032 | [4] -0.018 | [5] -0.044

SEC23A (UniProt Q15436)
inactive: [1] -0.002 | [2] -0.033 | [3] -0.035 | [4] -0.003 | [5] 0.103

S100PBP (UniProt Q96BU1)
inactive: [1] -0.065 | [2] -0.03 | [3] -0.222 | [4] -0.053 | [5] -0.108

SDHAF2 (UniProt Q9NX18)
inactive: [1] 0.097 | [2] 0.003 | [3] -0.011 | [4] -0.021

SAMSN1 (UniProt Q9NSI8)
inactive: [1] 0.008 | [2] 0.007 | [3] -0.012 | [4] 0.014 | [5] -0.007

SCLY (UniProt Q96I15)
inactive: [1] 0.026 | [2] 0.039 | [3] 0.043 | [4] 0.032 | [5] -0.03

SCAP (UniProt Q12770)
inactive: [1] -0.011 | [2] -0.026 | [3] 0.095 | [4] -0.015 | [5] -0.007

SBDS (UniProt Q9Y3A5)
inactive: [1] -0.036 | [2] 0.03 | [3] 0.004 | [4] -0.004 | [5] -0.016

SAR1A (UniProt Q9NR31)
inactive: [1] 0.066 | [2] 0.038 | [3] 0.005 | [4] -0.116 | [5] -0.009

SCYL3 isoform 2 (UniProt Q8IZE3)
inactive: [1] -0.047 | [2] 0.018 | [3] 0.027 | [4] 0.009 | [5] 0.106

SCYL1 (UniProt Q96KG9)
inactive: [1] 0.042 | [2] -0.004 | [3] -0.029 | [4] 0.092 | [5] -0.001

SACM1L (UniProt Q9NTJ5)
inactive: [1] -0.088 | [2] -0.012 | [3] 0.055 | [4] 0.035 | [5] 0.022

SART3, A0A499FI31
inactive: [1] 0.015 | [2] -0.022 | [3] 0.002 | [4] 0.009 | [5] 0.021

SEC61A1 (UniProt P61619)
inactive: [1] 0.008 | [2] -0.002 | [3] -0.029 | [4] 0.029 | [5] -0.077

SECISBP2L (UniProt Q93073)
inactive: [1] 0.25 | [2] -0.085 | [3] 0 | [4] 0 | [5] 0.116

SEC13 isoform 3 (UniProt P55735)
inactive: [1] 0.022 | [2] -0.013 | [3] -0.001 | [4] -0.029 | [5] 0.191

SEC61A2 (UniProt Q9H9S3)
inactive: [1] -0.01 | [2] -0.051 | [3] 0.005 | [4] -0.067 | [5] -0.103

SEL1L3 (UniProt Q68CR1)
inactive: [1] -0.025 | [2] 0.021 | [3] 0.028 | [4] 0.034 | [5] 0.005

SEMA7A (UniProt O75326)
inactive: [1] 0.052 | [2] 0.017 | [3] 0.035 | [4] -0.023 | [5] 0.038

SEL1L (UniProt Q9UBV2)
inactive: [1] 0.022 | [2] -0.005 | [3] 0.03 | [4] -0.07 | [5] 0.006

SAMM50 (UniProt Q9Y512)
inactive: [1] 0.027 | [2] -0.024 | [3] 0 | [4] 0.01 | [5] -0.013

SCML2 (UniProt Q9UQR0)
inactive: [1] -0.036 | [2] 0.062 | [3] -0.055 | [4] -0.032 | [5] 0.02

SCYL2 (UniProt Q6P3W7)
inactive: [1] -0.027 | [2] 0.016 | [3] 0.02 | [4] 0.001 | [5] -0.042

SASS6 (UniProt Q6UVJ0)
inactive: [1] -0.01 | [2] 0.028 | [3] 0 | [4] 0.021 | [5] 0.037

SAE1 (UniProt Q9UBE0)
inactive: [1] -0.001 | [2] -0.001 | [3] -0.01 | [4] -0.02 | [5] 0.018

SEC23B (UniProt Q15437)
inactive: [1] 0.008 | [2] 0 | [3] 0.013 | [4] 0.003 | [5] 0.018

SDCCAG8 (UniProt Q86SQ7)
inactive: [1] 0.012 | [2] -0.067 | [3] 0.018 | [4] -0.059 | [5] -0.069

SEC22B (UniProt O75396)
inactive: [1] -0.017 | [2] 0.016 | [3] 0.029 | [4] 0.037 | [5] 0.037

SEC63 (UniProt Q9UGP8)
inactive: [1] 0.026 | [2] -0.009 | [3] 0.018 | [4] -0.011 | [5] -0.034

SELENOH (UniProt Q8IZQ5)
inactive: [1] 0.022 | [2] 0.033 | [3] 0.026 | [4] -0.022 | [5] 0.045

SEC24C (UniProt P53992)
inactive: [1] -0.012 | [2] 0.008 | [3] 0 | [4] 0.03 | [5] 0.042

SDSL (UniProt Q96GA7)
inactive: [1] -0.087 | [2] 0.016 | [3] -0.012 | [4] -0.021 | [5] -0.011

SCRN2 (UniProt Q96FV2)
inactive: [1] 0.027 | [2] -0.001 | [3] 0.178 | [4] -0.003 | [5] -0.046

SAP30 (UniProt O75446)
inactive: [1] 0.029 | [2] -0.029 | [3] 0.009 | [4] 0.014 | [5] -0.026

Four successive records from above, for reference:
SEC22B (UniProt O75396)
inactive: [1] -0.017 | [2] 0.016 | [3] 0.029 | [4] 0.037 | [5] 0.037

SEC63 (UniProt Q9UGP8)
inactive: [1] 0.026 | [2] -0.009 | [3] 0.018 | [4] -0.011 | [5] -0.034

SELENOH (UniProt Q8IZQ5)
inactive: [1] 0.022 | [2] 0.033 | [3] 0.026 | [4] -0.022 | [5] 0.045

SEC24C (UniProt P53992)
inactive: [1] -0.012 | [2] 0.008 | [3] 0 | [4] 0.03 | [5] 0.042

Next entries follow.

SBF1 isoform 4 (UniProt O95248)
inactive: [1] -0.08 | [2] 0.001 | [3] -0.094 | [4] 0.092 | [5] 0.072

SDF4 (UniProt Q9BRK5)
inactive: [1] 0.076 | [2] -0.029 | [3] 0.01 | [4] 0.021 | [5] 0.017

SCARB1 isoform 2 (UniProt Q8WTV0)
inactive: [1] 0.015 | [2] 0.027 | [3] -0.009 | [4] -0.06 | [5] -0.026

SEC61B (UniProt P60468)
inactive: [1] 0.09 | [2] -0.032 | [3] -0.026 | [4] 0.013 | [5] -0.036

SAAL1 (UniProt Q96ER3)
inactive: [1] -0.005 | [2] 0.002 | [3] 0.003 | [4] -0.017 | [5] 0.068

SEC16A isoform 5 (UniProt O15027)
inactive: [1] -0.013 | [2] -0.005 | [3] 0.067 | [4] 0.036 | [5] 0.011

SEPHS1 (UniProt P49903)
inactive: [1] -0.013 | [2] -0.049 | [3] -0.007 | [4] -0.008 | [5] -0.007

SEPTIN8 (UniProt Q92599)
inactive: [1] -0.019 | [2] 0.007 | [3] -0.008 | [4] 0.003 | [5] 0.048

SEPTIN2 isoform 2 (UniProt Q15019)
inactive: [1] 0.014 | [2] 0.014 | [3] -0.007 | [4] -0.033 | [5] -0.039

SEPTIN7 (UniProt Q16181)
inactive: [1] 0.05 | [2] 0.012 | [3] -0.006 | [4] 0.022 | [5] 0.062

SELENOK (UniProt Q9Y6D0)
inactive: [1] 0.061 | [2] -0.074 | [3] -0.05 | [4] -0.181 | [5] -0.311

SDHAF3 (UniProt Q9NRP4)
inactive: [1] -0.027 | [2] 0.055 | [3] 0.022 | [4] 0.036 | [5] 0.025
